Among the data in PMC11955523, “Cryo-TEM structure of β-glucocerebrosidase in complex with its transporter LIMP-2” (Nature Communications, 2025) are binding values, retold here.

The chains behind the UniProt entries cited, without tags or fusion partners. Where a name states a change or a piece, a line headed by the entry shows the natural chain unless it says otherwise.
UniProt P04062: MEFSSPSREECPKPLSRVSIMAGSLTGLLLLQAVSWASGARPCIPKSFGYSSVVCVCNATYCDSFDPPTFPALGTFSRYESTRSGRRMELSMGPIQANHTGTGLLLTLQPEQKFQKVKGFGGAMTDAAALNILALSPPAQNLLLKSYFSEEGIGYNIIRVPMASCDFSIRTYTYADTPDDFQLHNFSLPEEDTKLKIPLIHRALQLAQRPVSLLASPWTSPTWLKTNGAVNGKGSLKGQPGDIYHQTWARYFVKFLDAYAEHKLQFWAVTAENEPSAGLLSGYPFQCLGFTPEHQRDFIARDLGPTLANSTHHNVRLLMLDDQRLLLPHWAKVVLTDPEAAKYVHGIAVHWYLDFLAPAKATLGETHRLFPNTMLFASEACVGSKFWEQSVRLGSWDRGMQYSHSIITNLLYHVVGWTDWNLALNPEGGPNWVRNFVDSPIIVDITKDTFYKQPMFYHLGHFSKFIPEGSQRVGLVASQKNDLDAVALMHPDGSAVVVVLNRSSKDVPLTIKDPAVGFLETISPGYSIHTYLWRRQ

In the test the target is T1, soluble LIMP-2 shuttle construct (sLIMP-2), secreted LIMP-2 ectodomain, wild type (human) (UniProt Q14108).
T1 sequence (chain, N-glycans at N45, N68, N105, N206, N224, N249, N304, N325, N412): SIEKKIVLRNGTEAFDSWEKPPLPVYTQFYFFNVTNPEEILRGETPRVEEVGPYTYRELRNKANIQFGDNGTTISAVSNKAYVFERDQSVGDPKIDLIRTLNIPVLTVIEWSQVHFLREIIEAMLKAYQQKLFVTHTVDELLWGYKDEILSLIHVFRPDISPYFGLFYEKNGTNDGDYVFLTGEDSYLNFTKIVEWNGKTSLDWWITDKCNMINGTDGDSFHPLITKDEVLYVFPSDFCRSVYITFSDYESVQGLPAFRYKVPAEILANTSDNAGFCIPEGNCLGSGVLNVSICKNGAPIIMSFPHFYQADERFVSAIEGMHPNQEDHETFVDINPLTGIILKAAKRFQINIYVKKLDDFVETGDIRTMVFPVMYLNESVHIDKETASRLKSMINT
The test can be described thus: pull-down; Ni-NTA beads in conditioned medium of HEK 293F cells co-expressing GCase and His-tagged sLIMP-2 (72 h), over-night at 4 °C; washes with 20 mM imidazole, elution with 400 mM imidazole, pH 7.4; read by Western blot and GCase activity of the pulldown sample. A general note: Immunoblotting shows a protein as a band on a membrane.

These are yes or no findings as the source states them, for the method shown. In cells and extracts the contact can be indirect. Binding calls can cover weak binding; strength is not graded here.

As for “GCase variant p.E388K (from UniProt P04062) (enzyme)”, the binding entry is listed as “binds”.
